These are yes or no findings as the source states them, for the method shown. Some binding calls cover weakened binding; strength is not graded here.
How the values were obtained:
[1] = molecular target: FGFR4/alpha-klotho on BaF3 cells (Example 12) (Homo sapiens (Human)) (UniProt P22455); assay: competition with FGF23 on BaF3 cells expressing FGFR4/alpha-klotho
[2] = molecular target: FGFR1c/alpha-klotho on BaF3 cells (Example 12) (Homo sapiens (Human)) (UniProt P11362); assay: competition with FGF23 on BaF3 cells expressing FGFR1c/alpha-klotho
[3] = molecular target: FGFR4/alpha-klotho on BaF3 cells (Example 12) (Homo sapiens (Human)) (UniProt P22455); assay: competition with FGF23 on BaF3 cells (FIG. 17B)
[4] = molecular target: FGFR1c/alpha-klotho on BaF3 cells (Example 12) (Homo sapiens (Human)) (UniProt P11362); assay: competition with FGF23 on BaF3 cells (FIG. 17A)

Sequences of proteins named here, by UniProt entry; tags and fusion partners are left off. A change or cut given only in a name is not applied to a line headed by its entry.
UniProt P22455: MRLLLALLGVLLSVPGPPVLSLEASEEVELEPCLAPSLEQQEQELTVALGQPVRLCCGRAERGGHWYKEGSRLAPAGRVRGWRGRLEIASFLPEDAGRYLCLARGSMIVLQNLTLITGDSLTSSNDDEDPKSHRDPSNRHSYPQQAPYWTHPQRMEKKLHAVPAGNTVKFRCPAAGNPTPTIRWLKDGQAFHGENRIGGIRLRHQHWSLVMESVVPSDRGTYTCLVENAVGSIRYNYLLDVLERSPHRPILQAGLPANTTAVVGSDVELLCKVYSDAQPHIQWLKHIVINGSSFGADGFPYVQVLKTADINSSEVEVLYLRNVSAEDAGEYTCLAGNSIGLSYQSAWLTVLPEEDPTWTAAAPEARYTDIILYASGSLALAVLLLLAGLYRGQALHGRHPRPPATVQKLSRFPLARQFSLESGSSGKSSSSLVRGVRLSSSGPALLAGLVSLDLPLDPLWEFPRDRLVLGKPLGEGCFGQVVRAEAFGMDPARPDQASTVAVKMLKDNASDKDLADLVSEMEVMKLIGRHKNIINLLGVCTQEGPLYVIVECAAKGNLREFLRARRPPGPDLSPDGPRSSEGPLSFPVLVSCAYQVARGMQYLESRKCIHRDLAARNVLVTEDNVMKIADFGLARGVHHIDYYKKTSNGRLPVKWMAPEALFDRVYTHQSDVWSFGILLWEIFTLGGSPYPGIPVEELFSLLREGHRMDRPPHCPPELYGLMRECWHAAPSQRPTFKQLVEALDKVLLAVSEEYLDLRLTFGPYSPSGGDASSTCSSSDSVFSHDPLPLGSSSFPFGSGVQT
UniProt P11362: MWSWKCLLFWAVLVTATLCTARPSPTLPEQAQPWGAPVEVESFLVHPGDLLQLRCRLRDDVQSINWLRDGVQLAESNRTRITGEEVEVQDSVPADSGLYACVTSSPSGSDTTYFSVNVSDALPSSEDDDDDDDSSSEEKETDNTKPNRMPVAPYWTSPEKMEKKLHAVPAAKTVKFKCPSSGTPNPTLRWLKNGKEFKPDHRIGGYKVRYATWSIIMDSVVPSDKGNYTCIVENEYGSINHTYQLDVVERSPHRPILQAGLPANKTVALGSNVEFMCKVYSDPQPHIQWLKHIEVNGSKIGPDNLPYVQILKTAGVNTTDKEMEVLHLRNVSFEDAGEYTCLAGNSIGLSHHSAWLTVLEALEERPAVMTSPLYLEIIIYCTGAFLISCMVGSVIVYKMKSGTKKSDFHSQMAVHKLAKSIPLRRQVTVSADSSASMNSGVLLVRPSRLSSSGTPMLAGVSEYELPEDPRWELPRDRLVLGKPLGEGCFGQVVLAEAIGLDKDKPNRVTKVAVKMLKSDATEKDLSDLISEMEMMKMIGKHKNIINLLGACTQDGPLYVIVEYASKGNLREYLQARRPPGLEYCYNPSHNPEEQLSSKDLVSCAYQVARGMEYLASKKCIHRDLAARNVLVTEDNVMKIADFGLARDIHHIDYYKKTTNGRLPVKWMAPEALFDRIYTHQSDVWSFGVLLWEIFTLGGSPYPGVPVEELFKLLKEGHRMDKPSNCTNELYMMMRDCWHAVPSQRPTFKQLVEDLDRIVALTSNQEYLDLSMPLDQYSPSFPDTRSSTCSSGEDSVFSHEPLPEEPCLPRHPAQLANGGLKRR

Measured: binding

B1: Wild Type Human FGF23 c-tail 180-251 (72 amino acid peptide) (peptide)
peptide: SAEDDSERDPLNVLKPRARMTPAPASCSQELPSAEDNSPMASDPLGVVRGGRVNTHAGGTGPEGCRPFAKFI
binds: all assays above

Source: patent US20170226172A1
